Results are given in words; binding and its absence hold for the method and conditions named. In cells and extracts the contact can be indirect. A result given as binding can be weak or reduced; the word gives no strength. Where a sequence is shown, tags or fusion partners need not be part of it.

The target in the assay is T1, PLCg2-V5 (human) (UniProt P16885).
T1 sequence: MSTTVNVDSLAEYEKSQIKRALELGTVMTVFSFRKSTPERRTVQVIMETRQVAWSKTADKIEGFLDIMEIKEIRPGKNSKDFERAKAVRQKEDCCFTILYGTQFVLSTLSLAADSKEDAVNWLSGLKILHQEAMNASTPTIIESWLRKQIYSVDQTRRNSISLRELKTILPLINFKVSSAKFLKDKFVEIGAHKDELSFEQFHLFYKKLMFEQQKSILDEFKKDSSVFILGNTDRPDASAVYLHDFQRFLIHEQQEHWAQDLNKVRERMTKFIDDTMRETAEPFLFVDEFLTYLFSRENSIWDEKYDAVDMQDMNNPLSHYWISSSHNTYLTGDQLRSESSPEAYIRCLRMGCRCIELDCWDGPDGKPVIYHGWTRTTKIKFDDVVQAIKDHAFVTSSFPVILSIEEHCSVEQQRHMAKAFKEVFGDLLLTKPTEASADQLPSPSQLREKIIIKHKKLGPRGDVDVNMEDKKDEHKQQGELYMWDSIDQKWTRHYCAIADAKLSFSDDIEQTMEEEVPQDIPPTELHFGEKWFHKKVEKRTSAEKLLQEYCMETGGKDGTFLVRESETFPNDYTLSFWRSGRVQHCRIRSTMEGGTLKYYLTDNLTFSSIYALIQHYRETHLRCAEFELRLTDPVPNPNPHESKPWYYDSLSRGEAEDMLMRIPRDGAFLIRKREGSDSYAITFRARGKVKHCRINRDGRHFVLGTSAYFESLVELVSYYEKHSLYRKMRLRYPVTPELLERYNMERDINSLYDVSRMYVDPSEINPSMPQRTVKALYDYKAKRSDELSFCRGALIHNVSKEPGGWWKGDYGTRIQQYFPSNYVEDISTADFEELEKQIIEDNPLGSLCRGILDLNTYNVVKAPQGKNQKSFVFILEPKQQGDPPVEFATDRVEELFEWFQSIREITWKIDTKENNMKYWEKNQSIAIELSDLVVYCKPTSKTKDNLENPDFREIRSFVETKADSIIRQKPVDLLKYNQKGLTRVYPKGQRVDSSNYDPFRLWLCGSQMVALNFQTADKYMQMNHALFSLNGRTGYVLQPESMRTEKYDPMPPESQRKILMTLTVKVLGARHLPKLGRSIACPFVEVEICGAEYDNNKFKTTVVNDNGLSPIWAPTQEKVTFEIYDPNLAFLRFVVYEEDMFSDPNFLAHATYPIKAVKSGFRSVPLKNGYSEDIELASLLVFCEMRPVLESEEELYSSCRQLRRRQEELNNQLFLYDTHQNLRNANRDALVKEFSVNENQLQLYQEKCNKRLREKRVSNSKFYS
As to the kind of experiment: co-IP; HEK293T co-expressing the two BANK1 isoforms (FL and D2); IP anti-PLCg2; kinase co-expression not stated.

Regarding “BANK1 short isoform (D2) lacking the second exon (human)”, the binding entry is on record as “binds”.

These data come from publication PMC3608554.
